Data on 1 substance can be found in paper PMC7244324.

The chains behind the UniProt entries cited, without tags or fusion partners.
UniProt P62993: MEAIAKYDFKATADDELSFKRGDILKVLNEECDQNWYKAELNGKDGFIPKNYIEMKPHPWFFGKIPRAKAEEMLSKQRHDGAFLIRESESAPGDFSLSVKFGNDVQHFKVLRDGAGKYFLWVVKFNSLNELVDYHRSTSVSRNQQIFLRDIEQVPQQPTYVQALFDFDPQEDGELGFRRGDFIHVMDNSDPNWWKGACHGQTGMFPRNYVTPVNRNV

Results are given in words; binding and its absence hold for the method and conditions named. In cells and extracts the contact can be indirect. Some entries that bind do so weakly or less than the wild type. Tags and fused reporters may be left off the sequences shown.

This test has as its target T1, Reptilian reovirus membrane fusion protein p14, wild type, C-terminal eGFP tag (reptilian orthoreovirus) (UniProt Q80FJ1).
T1 sequence: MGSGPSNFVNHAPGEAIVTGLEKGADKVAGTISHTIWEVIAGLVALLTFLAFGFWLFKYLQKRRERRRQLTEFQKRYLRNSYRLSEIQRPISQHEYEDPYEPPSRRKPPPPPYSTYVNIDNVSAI
Kind of test: co-IP; GFP-tagged p14 constructs captured from HEK293T lysate on GFP-Trap beads overnight at 4°C (150 mM NaCl, 25 mM HEPES, 1 mM EDTA, 0.5% NP-40, phosphatase and protease inhibitors); blot probed with α-Grb2.

Consider “Grb2 in HEK293T lysate (from UniProt P62993 1-217)”, for which the binding result is on record as “binds”.
